# Primary screen of a compound library

By UniProt entry, the sequences of proteins in these tests, tags left out. Residues count along the entry.
UniProt Q4DA54, 1-478: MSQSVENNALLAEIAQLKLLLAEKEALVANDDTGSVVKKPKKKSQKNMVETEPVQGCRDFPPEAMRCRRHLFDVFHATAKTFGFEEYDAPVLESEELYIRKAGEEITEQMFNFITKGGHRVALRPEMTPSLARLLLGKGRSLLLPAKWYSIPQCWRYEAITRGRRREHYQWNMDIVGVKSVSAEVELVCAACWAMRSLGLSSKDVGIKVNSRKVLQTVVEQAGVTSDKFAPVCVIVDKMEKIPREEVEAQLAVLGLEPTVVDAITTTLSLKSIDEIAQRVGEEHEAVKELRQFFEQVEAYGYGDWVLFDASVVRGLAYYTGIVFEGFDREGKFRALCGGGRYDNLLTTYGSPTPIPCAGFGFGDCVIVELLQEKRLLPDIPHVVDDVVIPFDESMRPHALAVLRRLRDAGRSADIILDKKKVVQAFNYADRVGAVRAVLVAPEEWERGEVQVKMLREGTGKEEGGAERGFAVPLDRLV
UniProt P9WNZ1, whole entry: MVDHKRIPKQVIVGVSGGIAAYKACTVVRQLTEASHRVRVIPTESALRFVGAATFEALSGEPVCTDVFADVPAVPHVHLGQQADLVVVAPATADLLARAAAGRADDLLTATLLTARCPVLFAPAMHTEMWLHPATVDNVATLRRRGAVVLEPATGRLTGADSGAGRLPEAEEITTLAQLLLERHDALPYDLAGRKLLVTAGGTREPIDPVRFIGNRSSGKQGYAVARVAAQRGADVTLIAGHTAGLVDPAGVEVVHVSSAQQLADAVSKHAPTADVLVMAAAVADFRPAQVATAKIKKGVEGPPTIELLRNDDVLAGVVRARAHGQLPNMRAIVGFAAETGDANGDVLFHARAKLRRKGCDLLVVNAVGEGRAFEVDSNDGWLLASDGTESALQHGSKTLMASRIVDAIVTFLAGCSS

A: 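Enzyme assay of histidyl-tRNA synthetase; the read-out is not stated. Target: Histidine-tRNA ligase, Trypanosoma cruzi CL Brener (UniProt Q4DA54). Tested at 30 µM. The record gives no direction; compounds that gave an IC50 in retests scored well above the rest, so higher reads as stronger inhibition. Of about 69,000 compounds tested this way, about 31 (0.045%) reached 50% or more in at least one test.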
B: 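Enzyme assay of CoaBC with a phosphate dye (Biomol Green) read at 650 nm. Target: Coenzyme A biosynthesis protein CoaBC, Mycobacterium tuberculosis (UniProt P9WNZ1). Compounds at 30 µM. Direction is inferred from only a few compounds that gave an IC50; most scored high, so higher reads as stronger inhibition. Most strong results did not repeat in a second test. Size under these conditions: about 67,000 compounds, about 40 of them at 50% or above in at least one test.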

Each number is a percent effect as filed.
How 0% and 100% were set is not recorded. Most values in the screen are low, and negative values occur.
Compounds were drawn at random from those tested, without regard to their results.
Two or more numbers in one place are separate tests of the same structure; such repeats can differ widely.
A dash means the value is not listed here; it may have been measured.

| compound | A | B |
|---|---|---|
| `Cc1cc(C(=O)CN2CCN(c3cnccn3)CC2)c(C)n1C(C)C` | 8.247 | 2.358 |
| `CC(C)(CN1CCC(Cc2ccc(CO)cc2)C1)N1CCOCC1` (centres unmarked) | 1.288 | 5.144 |
| `c1ccc(CCCN2CCN(CCn3cncn3)CC2)cc1` | 1.064 | -4.555 |
| `Fc1cccc(CN2C[C@@H]3CN(c4ncccn4)C[C@@H]3C2)c1` | -3.315 | 2.97 |
| `CN(C)C(=O)COCC1CN(Cc2cccs2)Cc2ncn(C)c21` (centres unmarked) | -0.9346 | -0.2469 |
| `Cc1cc(C)n(CC2CN(c3nnc(C)c(C)c3C#N)CCO2)n1` (centres unmarked) | 8.876 | 1.394 |
| `CCn1nc(CC(C)C)cc1C(=O)NCC(F)(F)F` | -1.508 | -1.564 |
| `Cc1cccc(N2CCN(C(=O)NC(C)c3nncn3C)CC2)c1` (centres unmarked) | 5.65 | 1.305 |
| `O=C1CCCN1CCCNCc1cc(O)c2cccc(Cl)c2n1` | 5.6 | 8.28 |
| `COc1ccc(C)cc1CNC(=O)C1=NN(c2ccccc2)C(=O)CN1` | -4.651 | 9.013 |
| `CC(C)CN1CCC(NC(=O)c2ccc(F)cc2F)CC1` | -0.4464 | -0.7653 |
| `Cc1cnn(CC2CCCN2C(=O)c2ccc3cc[nH]c3c2)c1` (centres unmarked) | 4.135 | 7.833 |
| `O=C(c1cscn1)N1CC[C@H]2[C@@H]1CCC(=O)N2c1ccccc1` | 4.082 | 4.326 |
| `CC(=O)NCCNC(=O)Nc1ccc(Br)cc1C(C)C` | 5.319 | -3.893 |
| `COC(=O)CN1CCCN(C(=O)CCOc2cccc(C)c2C)CC1` | 2.857 | 1.312 |
| `Cn1cnnc1S(=O)(=O)C1CCN(S(=O)(=O)c2ccccc2F)CC1` | 4.819 | 0.5089 |
| `CN(C)Cc1noc2c1CN(C(=O)c1ccncc1)CC2` | 1.604 | -3.75 |
| `CC(C)(C)OC(=O)N1CCN(S(=O)(=O)CCCC#N)C2(CCCCC2)C1` | 7.921 | -2.651 |
| `CCc1nc(C2CCCN2Cc2nccn2CC(F)(F)F)no1` (centres unmarked) | 4.611 | -5 |
| `CN1CCCC(c2n[nH]c3ncccc23)C1` (centres unmarked) | 2.703 | -3.611 |
| `c1cnc(N2CCC(c3csc(Nc4cnccn4)n3)CC2)nc1` | -6.571 | 3.196 |
| `Cc1ccc(-c2nc(CN3CCCC(Cn4cncn4)C3)cs2)o1` (centres unmarked) | 4.942 | 2.445 |
| `COc1ccc(NC(=O)N2CCC(CSC)C2)cc1C` (centres unmarked) | 9.877 | 0.8589 |
| `CN(C)c1cccc(C(=O)Nc2cnn(Cc3ccccn3)c2)c1` | 5.952 | 3.071 |
| `Cn1cccc1C(=O)N1CCc2ncnc(C3CC3)c2CC1` | 6.011 | 13.47 |
| `Cc1cccc(CN2CC[C@@H]3[C@@H]2CCN3C(=O)c2ccno2)n1` | 2.674 | -3.106 |
| `O=C(CCn1ccccc1=O)N1CCN(Cc2cccc(Cl)c2)CC1` | 0.5236 | 10.91 |
| `Cc1cnn(CC2CCCN2Cc2nnc(C)o2)c1` (centres unmarked) | 3.488 | 13.92 & 43.42 |
| `CC1CCCN(S(=O)(=O)NCc2ccccc2Cn2cncn2)C1` (centres unmarked) | 2.579 | 3.602 |
| `COCC(=O)N[C@H](C)c1onc(-c2ccc(OC)cc2)c1C(=O)O` | 1.087 | 7.726 |
| `CC(=O)N1CC[C@@H]2O[C@H](C(=O)Nc3nc(C)cs3)C[C@@H]21` | 6.145 | -1.091 |
| `CS(=O)(=O)N1CC2(CCN(CC3CCCCC3)C2)Cc2ccccc21` (centres unmarked) | 0.5917 | -2.632 |
| `O=C(c1cnc(NCC2CCCO2)c(Cl)c1)N1CCOCC1` (centres unmarked) | 4.124 | -5.868 |
| `CC(C)c1cc(C2CCCN2C(=O)CN2C(=O)CCNC2=O)no1` (centres unmarked) | 13 | -0.8264 |
| `CCc1noc(CN2CCCC(Cn3nc(C)nc3C)C2)n1` (centres unmarked) | 7.163 | -7.081 |
| `O=C(c1cc(COc2ccc3c(c2)OCO3)[nH]n1)N1CCCCO1` | -5.102 | 5.697 |
| `CN1C(=O)C2(CCN(S(=O)(=O)C3CC3)CC2)c2ccccc21` | 5.063 | - |
| `CSc1ccc(CN2CCC(CCC(=O)Nc3ccccc3)CC2)cc1` | 15.68 | -39.32 |
| `Cn1cnc2c1C(COCc1ccccc1)N(Cc1ccccn1)CC2` (centres unmarked) | 8.458 | 4.194 |
| `O=C(NCc1ccccc1Cn1cncn1)C1CC1` | 6.936 | -2.738 |
| `N#CC1(NC(=O)COC(=O)Cn2cccn2)CCCC1` | 1.935 | -0.9662 |
| `CN(Cc1cc[nH]n1)C(=O)C1CC(=O)N(Cc2ccncc2)C1` (centres unmarked) | -3.488 | 6.009 |
| `Cc1c(C(=O)N2CCC(C(=O)c3nc4ccccc4s3)CC2)cnn1C` | 1.13 | 5.085 |
| `CC(=O)N1CCCN(C(=O)Cc2c(C)nc(C)[nH]c2=O)CC1` | 5.419 | -0.3165 |
| `Cc1nc(CN2CCO[C@@H]3CN(Cc4ccsc4)C[C@@H]3C2)cs1` | 10.74 | 4.202 |
| `CCOCCC1(CNC(=O)c2ccc(C)nc2)CCCC1` | -0.4425 | 0.2336 |
| `O=C(NC1CCCC1)C1(Cc2cc(C3CCOC3)no2)CCNCC1` (centres unmarked) | -37.22 | 2.098 |
| `O=C1NC(c2ccccc2)=N[C@@]12CC[C@@H]1CN(Cc3cccnc3)C[C@@H]12` | 8.458 | 2.581 |
| `CN1CCc2nc(C3CCN(C(=O)CCC4CCCC4)CC3)ncc2C1` | 6.011 | 5.959 |
| `CCS(=O)(=O)c1ncc(CN(C)CCc2ccccn2)n1CCOC` | -1.508 | -2.533 |
| `Cc1cccc(C(=O)N2CCCSCC2CN2CCCC2)c1` (centres unmarked) | 10 | -6.456 |
| `O=C(CC1CCCO1)Nc1ccn(Cc2cccc3cccnc23)n1` (centres unmarked) | 9.74 | 6.892 |
| `COCCNC(=O)C1CN(Cc2nccs2)Cc2ccnn2C1` (centres unmarked) | 9.852 | -0.2538 |
| `Cc1cnn(CCNCc2csc(-c3ccc(C(N)=O)cc3)n2)c1` | 7.101 | 7.224 |
| `CC(=O)N1[C@H](Cn2cncn2)C[C@@H]2CN(c3ccc(C)nn3)CC[C@@H]21` | 2.51 | 6.818 |
| `COc1cccc2c3c(c(=O)n(C)c12)CCC(C)(C)O3` | 11.34 | 3.132 |
| `CC(Oc1ccc2c(c1)OCO2)C(=O)N1CCC(N2CCCC2)CC1` (centres unmarked) | 17.39 | 0.8168 |
| `CC(C)Oc1cccc(C(O)CNC(=O)CCc2ccncc2)c1` (centres unmarked) | 5.785 | -5.806 |
| `CC(C)(CC(=O)Nc1cccc(Oc2ccccn2)c1)C(=O)O` | 6.667 | 1.653 |

6 of the entries, repeated:

{"compound": "Cn1cccc1C(=O)N1CCc2ncnc(C3CC3)c2CC1", "A": 6.011, "B": 13.47}
{"compound": "CC1CCCN(S(=O)(=O)NCc2ccccc2Cn2cncn2)C1", "stereo": "centres unmarked", "A": 2.579, "B": 3.602}
{"compound": "CC(C)(C)OC(=O)N1CCN(S(=O)(=O)CCCC#N)C2(CCCCC2)C1", "A": 7.921, "B": -2.651}
{"compound": "CN1C(=O)C2(CCN(S(=O)(=O)C3CC3)CC2)c2ccccc21", "A": 5.063}
{"compound": "CSc1ccc(CN2CCC(CCC(=O)Nc3ccccc3)CC2)cc1", "A": 15.68, "B": -39.32}
{"compound": "CS(=O)(=O)N1CC2(CCN(CC3CCCCC3)C2)Cc2ccccc21", "stereo": "centres unmarked", "A": 0.5917, "B": -2.632}

Data taken from ChEMBL document CHEMBL3988442, “University of Dundee, Small-Polar-MMV Screening Library” (2021).